Assay results from doi:10.1101/2025.11.19.685371.
No constants are given. Whether binding was seen depends on the method and setting.

The chains behind the UniProt entries cited, without tags or fusion partners. Where a name states a change or a piece, a line headed by the entry shows the natural chain unless it says otherwise. A line that says so, or that is headed by a name, gives the form on record, which may keep a tag or linker.
Alexa Fluor 488-labeled unlipidated ApoE3 (Trp210Cys mutant) (P02649, form named): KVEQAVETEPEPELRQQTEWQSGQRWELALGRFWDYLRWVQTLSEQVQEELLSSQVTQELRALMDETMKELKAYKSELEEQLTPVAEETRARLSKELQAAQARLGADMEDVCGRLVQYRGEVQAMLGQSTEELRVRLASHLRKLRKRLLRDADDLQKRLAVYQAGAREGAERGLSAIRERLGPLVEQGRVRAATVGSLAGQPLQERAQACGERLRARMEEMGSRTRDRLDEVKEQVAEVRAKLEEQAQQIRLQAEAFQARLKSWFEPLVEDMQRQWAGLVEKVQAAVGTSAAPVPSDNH

Biological target: Alexa Fluor 488-labeled unlipidated ApoE3 (Trp210Cys mutant) (human) (UniProt P02649)
Experiment: fluorescence correlation spectroscopy

Alexa Fluor 488-labeled unlipidated ApoE3 (Trp210Cys mutant) (from UniProt P02649 19-317)
binding: no binding (tested: 1 nM)
